Experimental data taken from publication PMC8998355, “Diversity-Oriented Synthesis Catalyzed by Diethylaminosulfur-Trifluoride—Preparation of New Antitumor Ecdysteroid Derivatives” (International Journal of Molecular Sciences, 2022).

Tested on: L5178YMDR cells
Experiment: Combination assay with doxorubicin (checkerboard microplate method, MTT)
Assay type: cell-based, mouse
Procedure: Compounds 7, 10, 11, 13, and 14 had sufficient individual antiproliferative properties for their assessment of chemo-sensitizing activity. This was carried out as an antiproliferative assay on L5178YMDR cells in combination with doxorubicin, arranged according to the checkerboard microplate method.
The checkerboard microplate method was used to evaluate the compounds’ interaction with doxorubicin, as described before. Briefly, doxorubicin (2 mg/mL, Teva Pharmaceuticals, Budapest, Hungary) was serially diluted in the horizontal direction (100 µL per well), and the ecdysteroid was subsequently diluted in the vertical direction (50 µL per well). L5178YMDR cells were re-suspended in culture medium and added to each test well in 50 µL to contain 1 × 10^4 cells per well, and 50 µL of medium was added to the medium control wells. The plates were incubated for 72 h at 37 °C in a CO2 incubator and, at the end of the incubation period, the cell growth was determined by MTT assay as described above. Cell viability data were analyzed by the Calcusyn software using the Chou method, and drug interactions were expressed as combination index (CI) values, in which 0 < CI < 1, CI = 1, and CI > 1 refer to synergism, additivity, and antagonism, respectively.

[1] = drug ratio 23.2:1, with doxorubicin
[2] = drug ratio 46.4:1, with doxorubicin
[3] = drug ratio 92.8:1, with doxorubicin
[4] = drug ratio 185.6:1, with doxorubicin

SMILES	m (slope of the median-effect plot) [1]	m (slope of the median-effect plot) [2]	m (slope of the median-effect plot) [3]	m (slope of the median-effect plot) [4]	m (slope of the median-effect plot) (drug ratio 11.6:1, with doxorubicin)	m (slope of the median-effect plot) (drug ratio 23.1:1, with doxorubicin)	m (slope of the median-effect plot) (drug ratio 371.2:1, with doxorubicin)
CC(=O)N[C@H]1CC=C2C3=CC(=O)[C@@H]4C[C@H]5OC(C)(C)O[C@H]5C[C@]4(C)[C@H]3CC[C@@]21C [Compound 13]	2.65	4.18	2.60	2.54			
CC(=O)N[C@H]1CC[C@@]2(F)C3=CC(=O)[C@@H]4C[C@H]5OC(C)(C)O[C@H]5C[C@]4(C)[C@H]3CC[C@]12C [Compound 14]	1.78	1.99	1.99	1.65			
CC(=O)[C@H]1CC[C@@]2(F)C3=CC(=O)[C@@H]4C[C@H]5OC(C)(C)O[C@H]5C[C@]4(C)C3=CC[C@]12C [Compound 7]		2.64			2.18	1.32	
CC(=O)[C@H]1CC[C@@]2(F)C3=CC(=O)[C@@H]4C[C@H]5OC(C)(C)O[C@H]5C[C@]4(C)[C@H]3CC[C@]12C [Compound 11]	2.43	3.07	3.42	3.51			3.27
CC(=O)[C@H]1CC=C2C3=CC(=O)[C@@H]4C[C@H]5OC(C)(C)O[C@H]5C[C@]4(C)[C@H]3CC[C@@]21C [Compound 10]	2.20	2.76	2.14	2.37			
